# Source: the supplement of paper PMC10689618
# Where a name gives a salt, the structure may show the parent alone. This is one part of the list. Single values are uncertain, as repeats are few or missing.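 Primary human fetal astrocytes engulfed labelled rat cortical synaptosomes, measured as a red/green ratio corrected for calcein live-cell signal and scaled to the plate median. Toxicity meant calcein falling over 30%; decreased phagocytosis meant below 70% of median above 5 µM.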
# How the values were obtained:
# Human fetal astrocytes [1] = assay: loss of total cells relative to no-compound high-control median (toxicity); higher = more toxic (fewer cells); settings: 24 h
# Human fetal astrocytes [2] = assay: synaptosome phagocytosis (pHrodo/calcein intensity ratio) relative to plate median of data wells; higher = more phagocytosis; settings: 24 h
SMILES,loss of total cells (Human fetal astrocytes [1]; 1.39 µM),loss of total cells (Human fetal astrocytes [1]; 2.78 µM),loss of total cells (Human fetal astrocytes [1]; 5.56 µM),loss of total cells (Human fetal astrocytes [1]; 11.11 µM),loss of total cells (Human fetal astrocytes [1]; 22.22 µM),synaptosome phagocytosis (Human fetal astrocytes [2]; 1.39 µM),synaptosome phagocytosis (Human fetal astrocytes [2]; 2.78 µM),synaptosome phagocytosis (Human fetal astrocytes [2]; 5.56 µM),synaptosome phagocytosis (Human fetal astrocytes [2]; 11.11 µM),synaptosome phagocytosis (Human fetal astrocytes [2]; 22.22 µM)
COc1cc(CC(C)N)c(OC)cc1I (racemic) [(±)-DOI hydrochloride],-20.5%,-35%,6.6%,4%,8.8%,94.9%,115%,102%,103%,103%
O=C(CCCN1CCC2(CC1)C(=O)NCN2c1ccccc1)c1ccc(F)cc1 [Spiperone hydrochloride],-18.3%,-27.8%,-11.8%,-18.8%,-54.3%,75.1%,77.4%,75.9%,80.2%,103%
N#C/C(=C\c1ccc(O)c(O)c1)C(N)=S [Tyrphostin 47],-10.9%,-18.9%,-1.7%,-0.4%,-4.9%,103%,126%,122%,110%,115%
CC(=O)NBr [N-Bromoacetamide],-1.1%,-7.5%,-21.7%,-0.4%,13.2%,125%,119%,92.5%,96.4%,116%
"C[C@]12CC[C@@H](O)C[C@@H]1CC[C@@H]1[C@@H]2CC[C@]2(C)[C@@H](C(=O)CO)CC[C@@H]12 [3-alpha,21-Dihydroxy-5-alpha-pregnan-20-one]",-0.5%,1.4%,23%,12.4%,7.5%,118%,122%,136%,82.9%,102%
CN[C@@H](C)[C@H](O)c1ccccc1 [(-)-Ephedrine hemisulfate],1.3%,-0.9%,14.8%,24.7%,21.6%,115%,104%,79.9%,106%,87.7%
C=CCN1CC[C@]23c4c5ccc(O)c4O[C@H]2C(=O)CC[C@@]3(O)[C@H]1C5 [Naloxone hydrochloride],-5.2%,8.6%,7%,4.8%,15%,116%,85.3%,116%,82%,104%
CC(N)Cc1c[nH]c2ccc(O)cc12 (stereo not drawn) [alpha-Methyl-5-hydroxytryptamine maleate],-1.4%,-17.6%,0.5%,11.4%,8.4%,121%,126%,109%,148%,148%
COc1ccc2c(c1O)-c1cccc3c1[C@@H](C2)N(C)CC3 [R(-)-Apocodeine hydrochloride],12.1%,-10.3%,1.6%,-29.1%,-8.8%,111%,105%,122%,135%,96.5%
CC(=O)O[C@H]1C[C@@H]2CC[C@@H]3[C@H](CC[C@@]4(C)[C@H]3C[C@H]([N+]3(C)CCCCC3)[C@@H]4OC(C)=O)[C@@]2(C)C[C@@H]1[N+]1(C)CCCCC1 [Pancuronium bromide],-3.3%,-10.4%,-8%,-15.2%,-3.7%,103%,95.8%,105%,110%,104%
CCCN1CC[C@@H]2c3cc(O)ccc3CC[C@@H]21 (racemic) [cis-(±)-8-OH-PBZI hydrobromide],3.3%,2.3%,16.4%,24.8%,15.9%,114%,79.3%,95%,89.7%,144%
Clc1cc(I)cc(Cl)c1NC1=NCCN1 [p-Iodoclonidine hydrochloride],-12.8%,8.6%,19.2%,17.1%,13.1%,69.1%,88.9%,134%,120%,154%
C=CCN1CC[C@]23c4c5ccc(O)c4O[C@H]2/C(=N/N=C2\CC[C@@]4(O)[C@H]6Cc7ccc(O)c8c7[C@@]4(CCN6CC=C)[C@H]2O8)CC[C@@]3(O)[C@H]1C5 [Naloxonazine dihydrochloride],-6.2%,5.9%,1.4%,13.3%,38.3%,88.6%,139%,109%,133%,141%
CC1Cc2cc3c(cc2C(c2ccc(N)cc2)=NN1)OCO3 (stereo not given),-14.6%,-5.1%,15.6%,-4.9%,1.6%,103%,103%,118%,130%,70%
COc1ccc2c(c[n+](C)c3c4cc5c(cc4ccc23)OCO5)c1OC [Chelerythrine chloride],-9.9%,-4.2%,-36.4%,9.4%,50.8%,106%,97.6%,78%,44.3%,2.8%
CN1C2CCC1CC(OC(c1ccccc1)c1ccc(Cl)cc1)C2 (stereo not drawn) [4'-Chloro-3-alpha-(diphenylmethoxy)tropane hydrochloride],1.3%,-7.7%,6.6%,12.1%,23.2%,86.5%,69.9%,86%,96.8%,97.6%
NCCc1ccc(O)cc1 [4-Hydroxyphenethylamine hydrochloride],-6.5%,-11.7%,-14%,4.2%,-22.2%,110%,99.8%,96.3%,105%,105%
CC(C)C[C@H]1C(=O)N2CCC[C@H]2[C@]2(O)O[C@](NC(=O)[C@@H]3C=C4c5cccc6[nH]c(Br)c(c56)C[C@H]4N(C)C3)(C(C)C)C(=O)N12 [(+)-Bromocriptine methanesulfonate],3.3%,-5.4%,6%,-18.4%,-3.4%,136%,118%,131%,67.2%,58.4%

SMILES,loss of total cells (Human fetal astrocytes [1]; 1.39 µM),loss of total cells (Human fetal astrocytes [1]; 2.78 µM),loss of total cells (Human fetal astrocytes [1]; 5.56 µM),loss of total cells (Human fetal astrocytes [1]; 11.11 µM),loss of total cells (Human fetal astrocytes [1]; 22.22 µM),synaptosome phagocytosis (Human fetal astrocytes [2]; 1.39 µM),synaptosome phagocytosis (Human fetal astrocytes [2]; 2.78 µM),synaptosome phagocytosis (Human fetal astrocytes [2]; 5.56 µM),synaptosome phagocytosis (Human fetal astrocytes [2]; 11.11 µM),synaptosome phagocytosis (Human fetal astrocytes [2]; 22.22 µM)
"C[C@@H](N)Cc1cnc[nH]1 [Histamine, R(-)-alpha-methyl-, dihydrochloride]",-5.4%,-20.5%,4.1%,-8.5%,0%,80.7%,110%,117%,108%,95.8%
CN1C[C@@H](NS(=O)(=O)N(C)C)C[C@@H]2c3cccc4c3c(cn4C)C[C@H]21 [Mesulergine hydrochloride],-18.5%,6.8%,13.6%,17.1%,15.9%,131%,110%,121%,126%,98.6%
C=CCN1CC[C@]23c4c5ccc(O)c4O[C@H]2/C(=N/NC(=O)c2ccccc2)CC[C@@]3(O)[C@H]1C5 [Naloxone benzoylhydrazone],-20.4%,-4.1%,-22.1%,0%,-5.6%,97.3%,115%,114%,111%,113%
CO[C@H]1CC=C2CCN3CCC4=C(CC(=O)OC4)[C@]23C1 [Dihydro-beta-erythroidine hydrobromide],-6.3%,-0.9%,18.9%,-1.3%,-1.6%,91%,110%,73.9%,100%,113%
"CN1CC[C@@]2(C)c3cc(O)ccc3N(C)C12 (single isomer, unassigned; (-)) [(-)-Eseroline fumarate]",-21.3%,-10.3%,-4.9%,-18.4%,7.2%,105%,98.3%,97.4%,65%,70.8%
COc1ccc2c(c1)[C@@]13CCCC[C@H]1[C@@H](C2)NCC3 [3-Methoxy-morphanin hydrochloride],-6.2%,-2.3%,10.8%,14.3%,-4.7%,85.7%,96.7%,90.4%,80.2%,81%
CCCN(CCC)C1CCc2cccc(O)c2C1 (racemic) [(±)-8-Hydroxy-DPAT hydrobromide],-1.3%,-7.7%,7.4%,-22%,-1.6%,132%,110%,72%,121%,124%
"CC(N)c1cccc(Cl)c1Cl (racemic) [(±)-2,3-Dichloro-alpha-methylbenzylamine hydrochloride]",7.9%,4.3%,-8.2%,-10.3%,-8.8%,92.3%,88.8%,108%,105%,96%
Clc1cnc(Oc2ccc(Oc3ncc(Cl)cc3Cl)cc2)c(Cl)c1,-23.9%,-26.6%,-9.6%,-13.4%,-20.6%,116%,118%,106%,110%,116%
CCOC(=O)c1ncn2c1[C@@H]1CCCN1C(=O)c1cc(OC)ccc1-2,-24.2%,-20.4%,3.3%,-15.2%,-10.3%,74.2%,79.1%,114%,98.8%,95.6%
CCS(=O)(=O)Nc1cccc(C(=C2CCCCC2)c2cnc[nH]2)c1,-20.6%,-10.2%,3.2%,4.9%,14.7%,83.9%,104%,111%,81.2%,95.5%
N#CC(C#N)=Cc1ccc(O)c(O)c1 [Tyrphostin 23],-19.6%,-11.7%,-5.1%,-1.9%,-18.1%,108%,105%,120%,110%,121%
CC(=O)c1c(O)c(C)c(O)c(Cc2c(O)c3c(c(C(=O)/C=C/c4ccccc4)c2O)OC(C)(C)C=C3)c1O [Rottlerin],-28.3%,-28.4%,-11.8%,-1.9%,8.2%,114%,117%,100%,100%,23.3%
C[C@@]12C(=O)OC(=O)[C@]1(C)[C@H]1CC[C@@H]2O1 [Cantharidin],-16.9%,-0.9%,-10.6%,4.9%,23.7%,111%,146%,103%,125%,118%
COC(=O)c1cc2c(cn1)[nH]c1ccccc12 [Methyl beta-carboline-3-carboxylate],-11.3%,-9.4%,-12.3%,-23.8%,-12%,106%,104%,112%,108%,87.4%
CCCN(CCC)CCc1ccc(O)c(O)c1 [Dipropyldopamine hydrobromide],-18.8%,-10.3%,-9.1%,-13%,11.2%,111%,86.6%,72.7%,105%,109%
"CCCN1CCc2cc(O)cc3c2[C@H]1Cc1ccc(O)c(O)c1-3 [R(-)-2,10,11-Trihydroxy-N-propylnoraporphine hydrobromide]",13%,-5.1%,4.9%,4%,20.8%,95.4%,79.3%,76.3%,76.3%,53.8%
NC(CCP(=O)(O)O)C(=O)O (racemic) [(±)-2-Amino-4-phosphonobutyric acid],-12.5%,0.9%,-5.1%,-11.2%,-1.1%,98.6%,101%,120%,132%,132%

# Retrieved by structure from the list above (2):
SMILES,loss of total cells (Human fetal astrocytes [1]; 1.39 µM),loss of total cells (Human fetal astrocytes [1]; 2.78 µM),loss of total cells (Human fetal astrocytes [1]; 5.56 µM),loss of total cells (Human fetal astrocytes [1]; 11.11 µM),loss of total cells (Human fetal astrocytes [1]; 22.22 µM),synaptosome phagocytosis (Human fetal astrocytes [2]; 1.39 µM),synaptosome phagocytosis (Human fetal astrocytes [2]; 2.78 µM),synaptosome phagocytosis (Human fetal astrocytes [2]; 5.56 µM),synaptosome phagocytosis (Human fetal astrocytes [2]; 11.11 µM),synaptosome phagocytosis (Human fetal astrocytes [2]; 22.22 µM)
"CC(N)c1cccc(Cl)c1Cl (racemic) [(±)-2,3-Dichloro-alpha-methylbenzylamine hydrochloride]",7.9%,4.3%,-8.2%,-10.3%,-8.8%,92.3%,88.8%,108%,105%,96%
NC(CCP(=O)(O)O)C(=O)O (racemic) [(±)-2-Amino-4-phosphonobutyric acid],-12.5%,0.9%,-5.1%,-11.2%,-1.1%,98.6%,101%,120%,132%,132%
